The source of these data is article PMC7854685, “Histone Parylation factor 1 contributes to the inhibition of PARP1 by cancer drugs” (Nature Communications, 2021).

Chains of the proteins cited; added tags and fusions are not shown.
UniProt P09874, whole entry: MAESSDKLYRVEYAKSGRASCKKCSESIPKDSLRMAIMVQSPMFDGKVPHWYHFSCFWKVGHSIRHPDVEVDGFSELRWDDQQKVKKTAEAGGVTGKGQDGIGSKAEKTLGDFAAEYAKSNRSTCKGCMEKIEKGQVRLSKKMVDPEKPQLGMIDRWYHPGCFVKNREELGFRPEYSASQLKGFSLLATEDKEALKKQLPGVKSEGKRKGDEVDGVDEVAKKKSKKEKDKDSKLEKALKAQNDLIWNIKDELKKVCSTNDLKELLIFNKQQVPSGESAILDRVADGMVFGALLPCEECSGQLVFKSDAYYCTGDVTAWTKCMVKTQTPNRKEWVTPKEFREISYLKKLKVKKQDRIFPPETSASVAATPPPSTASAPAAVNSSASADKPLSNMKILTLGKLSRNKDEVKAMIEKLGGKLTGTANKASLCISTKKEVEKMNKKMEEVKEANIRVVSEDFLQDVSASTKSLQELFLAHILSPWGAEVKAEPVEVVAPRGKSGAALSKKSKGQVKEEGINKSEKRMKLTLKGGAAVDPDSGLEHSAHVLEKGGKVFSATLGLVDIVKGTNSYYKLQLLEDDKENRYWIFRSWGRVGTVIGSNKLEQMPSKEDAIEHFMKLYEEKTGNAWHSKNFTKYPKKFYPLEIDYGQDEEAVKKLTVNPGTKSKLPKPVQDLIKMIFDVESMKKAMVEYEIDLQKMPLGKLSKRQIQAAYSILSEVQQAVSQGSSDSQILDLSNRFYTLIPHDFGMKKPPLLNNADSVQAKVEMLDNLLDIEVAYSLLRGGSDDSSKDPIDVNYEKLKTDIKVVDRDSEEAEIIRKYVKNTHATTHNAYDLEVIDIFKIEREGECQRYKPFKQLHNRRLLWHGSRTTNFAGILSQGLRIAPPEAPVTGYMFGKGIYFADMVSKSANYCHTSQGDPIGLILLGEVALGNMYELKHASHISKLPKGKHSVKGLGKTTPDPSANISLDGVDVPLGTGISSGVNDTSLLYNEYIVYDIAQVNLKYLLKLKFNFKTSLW

Structures are written as SMILES. A number of entries come with more than one value. This list holds those alone. There may be further records. The values listed for one entry seem to repeat one measurement; one of them may be the mean.

In this assay the target is PARP1 (Homo sapiens, UniProt P09874). In words: Release of fluorescently labeled p18mer DNA (fluorescence polarization) upon NAD+ addition, KI determination for PARPi, with or without HPF1.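 Note: PARP1 bound to fluorescein-tagged DNA and preincubated with inhibitor, then high NAD+ added, drop in fluorescence polarization tracked as the DNA dissociates.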 The assay is classed as biochemical. The settings on record: PARP1, without HPF1, single experiment.

`COC1CCN(C(=O)c2cc(Cc3n[nH]c(=O)c4ccccc34)ccc2F)CC1`: the “koff (est)” value is reported as ≥ 0.00347 s-1, ≥ 0.00165 s-1, ≥ 0.00248 s-1, ≥ 0.00267 s-1, ≥ 0.00578 s-1 and the t1/2est is 200, 420, 280, 260, 120 s.
